Source: PubChem BioAssay AID1918974 (NCATS, 2023).

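KMS21BM_JCRB multiple myeloma cell line, cell viability measured by ATP-driven luminescence after 48 hours of compound exposure. Each compound was tested as a dilution series from about 0.000031 to 92 µM. The number is the fitted AC50 potency; a lower value means a more potent effect on viability. Calls come from the curve class and an activity score, where scores of 40–100 are active and 1–39 (weak, poorly fitted or partial curves) are inconclusive.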

Values are in nM. All entries here are filed as inconclusive. Only part of the assay is shown, chiefly results filed as inconclusive. A potency from a partial, single-point or poor curve is only a rough figure. Some entries filed as inconclusive have a full curve. The first word of each remark tells which way the curve ran; it can be opposite to the aim of the assay. Activity scores are not listed here.

Compound,potency (nM),curve
CCN(CC)CCCCNc1ncc2c(n1)N(C)C(=O)N(c1c(Cl)c(OC)cc(OC)c1Cl)C2,6619,"cytotoxic, full curve, poor fit"
COc1cccc2c1C(=O)c1c(O)c3c(c(O)c1C2=O)C[C@@](O)(C(=O)CO)C[C@@H]3O[C@H]1C[C@H](N)[C@H](OC2CCCCO2)[C@H](C)O1 (some centres undefined),18654,"cytotoxic, partial curve, poor fit"
C[C@@H]1C[C@H]2[C@@H]3CCC4=CC(=O)C=C[C@]4(C)[C@@]3(Cl)[C@@H](O)C[C@]2(C)[C@@]1(OC(=O)c1ccco1)C(=O)CCl,9350,"cytotoxic, full curve, poor fit"
Nc1nc(NCCNc2ncc(-n3ccnc3)c(-c3ccc(Cl)cc3Cl)n2)ccc1[N+](=O)[O-],833.3,"cytotoxic, full curve, poor fit"
CC(C)(C)c1nc2c3cc[nH]c(=O)c3c3cc(F)ccc3c2[nH]1,2957,"rising, full curve"
CC(=O)OCC(=O)[C@@]12OC(C)(C)O[C@H]1C[C@H]1[C@@H]3C[C@H](F)C4=CC(=O)C=C[C@]4(C)[C@@]3(F)[C@@H](O)C[C@@]12C,29.6,"cytotoxic, full curve, poor fit"
c1ccc2c(CN3CCNCC3)cccc2c1,7427,"rising, partial curve, poor fit"
COc1cc(C(=O)NS(=O)(=O)c2ccccc2C)ccc1Cc1cn(C)c2ccc(NC(=O)OC3CCCC3)cc12,14817,"rising, partial curve, poor fit"
Cc1ccc(CN2CCNCC2)cc1NC(=O)CNc1ccc(F)c(F)c1,33173,"rising, partial curve"
COC[C@H](NC(=O)c1cnc(C)s1)C(=O)N[C@@H](COC)C(=O)N[C@@H](Cc1ccccc1)C(=O)[C@@]1(C)CO1,33173,"rising, partial curve, poor fit"
NNC(=O)c1ccncc1,29.6,"cytotoxic, full curve, poor fit"
C=C1C(=O)O[C@H]2[C@@H]1CCC(C)=CCC[C@@]1(C)O[C@@H]21,1663,"cytotoxic, full curve, poor fit"
CCCCCCCCc1ccc(CCC(N)(CO)CO)cc1,3317,"cytotoxic, full curve, poor fit"
C[C@@H]1CC[C@@]2(OC1)OC1CC3C4CC=C5CC(O)CCC5(C)C4CCC3(C)C1[C@@H]2C (some centres undefined),1.9,"cytotoxic, full curve, poor fit"
CCCCCCCCCCCCCCCCCCCCCCO,23.5,"rising, full curve, poor fit"

Once more, the final 2:

Compound,potency (nM),curve
C[C@@H]1CC[C@@]2(OC1)OC1CC3C4CC=C5CC(O)CCC5(C)C4CCC3(C)C1[C@@H]2C (some centres undefined),1.9,"cytotoxic, full curve, poor fit"
CCCCCCCCCCCCCCCCCCCCCCO,23.5,"rising, full curve, poor fit"